In PubChem BioAssay AID743255 (National Center for Advancing Translational Sciences (NCATS), 2014):
Among all 390,000 compounds or so, about 910 (0.23%) were called active. The shares of active, inactive and inconclusive entries below differ from those in the screen. Calls follow the shape of the dose curve; as a rule, active = well fitted inhibition curve with a large enough effect; inconclusive = small, poorly fitted or top-dose-only effect; inactive = no such curve, though single readings can be large or run the other way. Potencies of inconclusive entries are doubtful fits and often do not repeat.

By UniProt entry, the sequences of proteins in these tests, tags left out. Where a name states a change or a piece, a line headed by the entry shows the natural chain unless it says otherwise.
UniProt O94782: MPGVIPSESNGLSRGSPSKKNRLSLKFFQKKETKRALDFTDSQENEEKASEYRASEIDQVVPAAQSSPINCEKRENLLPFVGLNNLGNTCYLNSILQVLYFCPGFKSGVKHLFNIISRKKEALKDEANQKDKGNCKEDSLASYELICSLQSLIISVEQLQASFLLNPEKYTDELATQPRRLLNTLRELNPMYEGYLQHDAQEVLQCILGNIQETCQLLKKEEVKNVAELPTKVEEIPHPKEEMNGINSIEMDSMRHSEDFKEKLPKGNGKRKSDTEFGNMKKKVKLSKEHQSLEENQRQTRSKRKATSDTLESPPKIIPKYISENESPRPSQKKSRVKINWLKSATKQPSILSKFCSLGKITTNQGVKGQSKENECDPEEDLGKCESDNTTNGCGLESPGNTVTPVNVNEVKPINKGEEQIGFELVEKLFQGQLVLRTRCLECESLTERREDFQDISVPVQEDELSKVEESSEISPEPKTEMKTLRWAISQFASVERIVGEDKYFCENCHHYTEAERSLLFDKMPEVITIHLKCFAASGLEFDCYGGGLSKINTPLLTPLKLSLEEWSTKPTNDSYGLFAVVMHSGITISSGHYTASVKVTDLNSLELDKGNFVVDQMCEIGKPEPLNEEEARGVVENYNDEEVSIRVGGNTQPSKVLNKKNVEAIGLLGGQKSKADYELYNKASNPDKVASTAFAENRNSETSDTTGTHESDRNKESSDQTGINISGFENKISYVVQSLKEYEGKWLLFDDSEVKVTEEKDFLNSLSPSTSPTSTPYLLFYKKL

Each compound was assayed against Ubiquitin carboxyl-terminal hydrolase 1 (Homo sapiens) (UniProt O94782) (assay: Inhibitors of USP1/UAF1: Primary Screen). Settings: recombinant USP1/UAF1, Ub-Rhodamine cleavage fluorescence; activity change, negative = inhibition: at 57.1 µM (top of the series).
How it was run: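 USP1/UAF1 complex at 1 nM was preincubated with compound for 15 min at room temperature, then Ub-Rho substrate (150nM final) was added. Fluorescence (480/540 nm) was read kinetically, 6 reads every 60 seconds.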
% is scaled to controls: 0 for no effect and ±100 for the full control effect; potency is read from the fitted curve at half-maximal effect.
Also: nearly all actives have a fitted effect of over 60% in size.

Potency, inconclusive:
O=C(CCN1C(=O)/C(=C/c2cccs2)SC1=S)Nc1ccc(C(=O)O)c(O)c1 39.8 µM [inhibitor, partial curve], O=C(CN1CCN(C2CCCCC2)CC1)Nc1ccccc1-c1ccccc1 0.355 µM [inhibitor, full curve, poor fit], CCOc1cc(CNC(=O)CSc2n[nH]c(-c3ccccc3)n2)cc(OCC)c1OCC 112 µM [inhibitor, partial curve, poor fit], COc1cc(NC(C)CCCN)c2nc(C)ccc2c1Oc1ccc(F)cc1 (stereo not drawn) 25.1 µM [inhibitor, partial curve], Cc1ccc(NC(=O)CSc2nc(=O)n(Cc3ccncc3)c3c2CCC3)cc1Cl 79.4 µM [inhibitor, partial curve, poor fit], CCN(C(=O)CSc1nc(-c2ccc(C(C)C)cc2)no1)c1ccccc1 5.62 µM [inhibitor, partial curve], O=C(Nc1nnc(S(=O)(=O)N2CCCc3ccccc32)s1)c1ccc(Cl)cc1 50.1 µM [inhibitor, partial curve, poor fit], COc1cc(N=c2ssnc2Cl)c(OC)cc1Cl 1000 µM [inhibitor, partial curve], C[C@H](NC(=O)c1nc[nH]c1C(=O)NCCCCCNC(=O)OC(C)(C)C)c1ccccc1 3.16 µM [inhibitor, partial curve, poor fit], O=C1C2C(C(=O)N1c1ccc3c(c1)OCO3)C1C=CC2C12CC2 (stereo not drawn) 44.7 µM [inhibitor, single point], Cc1c(N(C)CS(=O)(=O)O)c(=O)n(-c2ccccc2)n1C 31.6 µM [inhibitor, single point], C[C@@H](NC(=O)c1[nH]cnc1C(=O)Nc1nccs1)c1ccccc1 50.1 µM [inhibitor, partial curve, poor fit], CC(C)(C)c1cc(C(c2cccnc2)N2CCN(CCO)CC2)cc(C(C)(C)C)c1O (stereo not drawn) 0.891 µM [inhibitor, full curve, poor fit], COc1ccc(/C=C/C(=O)NC(=S)Nc2ccccc2C(=O)NC2CCCCC2)cc1 0.251 µM [inhibitor, full curve, poor fit], CCO[C@@H]1OC(C(=O)N2CCN(C)CC2)=C[C@H](C2CCCCC2)[C@H]1CCCO 3.55 µM [inhibitor, full curve, poor fit], Cn1nnc2c[n+](CC(=O)c3ccc(Cl)cc3)cc(Br)c21 31.6 µM [inhibitor, partial curve], O=C1CCCC2=C1Sc1ccccc1N2 50.1 µM [inhibitor, partial curve, poor fit], COc1ccc(C)cc1S(=O)(=O)NCCC1=CCCCC1 15.8 µM [inhibitor, partial curve, poor fit], O=C1NC(Cc2ccc(O)cc2)c2nc3ccc(F)cc3c(=O)n2-c2cc(Cl)ccc21 (stereo not drawn) 0.1 µM [inhibitor, full curve, poor fit], Cc1nn(Cc2ccccc2Cl)c(C)c1C(=O)NCCN1C(=O)S/C(=C\c2ccccc2)C1=O 7.08 µM [inhibitor, partial curve], Cc1ccc2c(CNCCc3ccco3)c(C(=O)O)n(Cc3ccc(F)cc3)c2c1 39.8 µM [inhibitor, partial curve], CCN(CC)CCC=C(c1cccs1)c1cccs1 7.94 µM [inhibitor, full curve, poor fit], CC(=O)c1cccc(Nc2ccc3cc(S(=O)(=O)N4CCCC4)ccc3n2)c1 1.26 µM [inhibitor, full curve, poor fit], Cc1ccc(C)c(NC(=O)CSc2nc(C)cc(C)c2C#N)c1 15.8 µM [inhibitor, partial curve], COc1ccc(-n2c(=O)c3c4c(sc3n3c(SC(C)C)nnc23)COC(C(C)C)C4)cc1 (stereo not drawn) 1 µM [inhibitor, full curve, poor fit], Cc1[nH]n(-c2ccccc2)c(=O)c1N=Nc1ccc(C(=O)O)cc1 0.251 µM [inhibitor, full curve, poor fit], CCN(CC)CCSc1nc2ccccc2c(=S)n1-c1ccccc1 44.7 µM [inhibitor, partial curve, poor fit], Cc1nn(-c2nnc(NCc3ccccc3)nn2)c(C)c1Br 39.8 µM [inhibitor, partial curve], COc1ccc(C2CCCCCN2Cc2nc3ccccc3c(=O)n2CC(N)=O)cc1 (stereo not drawn) 7.08 µM [inhibitor, partial curve], Cc1cccc(NC(=O)c2oc3ccc(S(=O)(=O)N4CCC5(CC4)OCCO5)cc3c2C)c1C 1.78 µM [inhibitor, partial curve, poor fit], CCN(CC)CCOC(=O)c1ccc(N/C=C(/C#N)c2nc(-c3ccc(OC)c(OC)c3)cs2)cc1 39.8 µM [inhibitor, partial curve], C=CCn1c(N)c(C(=O)Nc2cccc(C)c2)c2nc3ccccc3nc21 17.8 µM [inhibitor, partial curve], COc1ccc(C(=O)Nc2ccc3oc(Cc4ccc(Cl)cc4)nc3c2)cc1OC 39.8 µM [inhibitor, partial curve], Cc1ccc(-c2nc(CS(=O)(=O)CC(=O)NC3CCCCC3C)c(C)o2)cc1 (stereo not drawn) 8.91 µM [inhibitor, partial curve], CCC(Sc1nc(C)cc(C)n1)C(=O)NC1=NN=C(c2ccc(C)cc2)CS1 (stereo not drawn) 44.7 µM [inhibitor, partial curve, poor fit], COC(=O)CCC(=O)OC1(C)C(=O)C2=CN(CCc3c[nH]c4ccccc34)C(c3ccc(OC)cc3)=CC2=C(Br)C1=O (stereo not drawn) 22.4 µM [inhibitor, partial curve], NS(=O)(=O)c1ccc(NC(=S)Nc2ccn(Cc3cccc4ccccc34)n2)cc1 4.47 µM [inhibitor, partial curve], CCOC(=O)c1c(C)[nH]c(C)c1S(=O)(=O)N(C)CC(=O)Nc1cccc(C(F)(F)F)c1 50.1 µM [inhibitor, partial curve, poor fit], CCOC(=O)C1CCN(C(=O)Cn2ncc3c([nH]c4ccccc43)c2=O)CC1 0.282 µM [inhibitor, full curve], O/N=C(/c1ccc(Cl)cc1)C1CC1c1ccccc1 (stereo not drawn) 44.7 µM [inhibitor, partial curve], Cc1ccc(C)c(-n2c3nc(=O)[nH]c(=O)c-3cc3cc([N+](=O)[O-])ccc32)c1 25.1 µM [inhibitor, single point]

Potency, active:
Cc1ccc(N2C(=O)c3cccc4c(N5CCN(C)CC5)ccc(c34)C2=O)c2cccnc12 28.2 µM, COCCN(CCOC)Cc1c(O)ccc2c1O/C(=C\c1ccc(C)o1)C2=O 31.6 µM, CN(C)c1ccc(/C=C2\SC(=S)N(Nc3ncc(C(F)(F)F)cc3Cl)C2=O)cc1 25.1 µM

Activity change, negative = inhibition, inactive:
C=CCN1[C@@H](Cc2ccccc2)COCCS1(=O)=O -6.76%, O=C(COc1cccnc1[N+](=O)[O-])c1ccc(Cl)s1 -20.2%, CC1CC(C)CN(CCCNC(=O)c2ccc3c(c2)N(Cc2ccccc2)C(=O)c2ccccc2S3=O)C1 (stereo not drawn) -5.46%, COc1ccc(OCc2cc(-c3ccc(Cl)cc3)no2)cc1 -11.5%, CCOc1ccc(NCCC(O)c2ccc(F)cc2)cc1 (stereo not drawn) -16.3%, CCCCNC(=O)CSc1nc2ccc(N3CCOCC3)cc2c(=O)n1CCc1ccccc1 -11.3%, Cc1cc(C(=O)CSc2nnnn2C)c(C)n1-c1ccc2c(c1)OCCO2 -22.8%, Cc1ccc2cc(C(=O)O)c(C)nc2c1 -17.2%, COc1ccccc1/C=C/C(=O)NNC(=O)c1cc(C)oc1C 0.679%, CCC(C)NC(=O)Cn1c(=O)n(-c2cc(OC)cc(OC)c2)c(=O)c2ccccc21 (stereo not drawn) -16.5%, C=CC1C(N2CCOCC2)C(C)(C)S1(=O)=O (stereo not drawn) 2.99%, CCOC(=O)c1c(C)[nH]c(C(=O)COC(=O)CNC(=O)c2ccc(Br)cc2)c1C -18.4%, CC(=O)c1sc(N/N=C\c2ccc(N(C)C)cc2)nc1C 3.02%, Cn1c(=O)[nH]c(=O)c2c1nc(Br)n2Cc1ccc(Cl)cc1 -11.6%, COc1ccccc1C(=O)NNC(=S)NC(=O)c1sc2ccccc2c1Cl -22.8%, CCOc1ccccc1NC(=O)c1nn(C)c2c1CSc1ccccc1-2 -13.2%, COc1ccc([N+](=O)[O-])c(S(=O)(=O)c2ccccc2)n1 -16.4%, CN(C)CCn1cnc2c1c(=O)[nH]c(=O)n2Cc1ccccc1 -16.3%, Nc1nonc1C(=O)N/N=C/c1ccc(-c2ccc(Cl)c(C(=O)O)c2)o1 -20.3%, Cc1ccc(NC(=O)C(C)N2CCc3ccccc3C2)cc1 (stereo not drawn) -20.8%, O=C1C2C3C=CC(C3=C(c3ccccc3)c3ccccc3)C2C(=O)N1Cc1ccccc1 (stereo not drawn) -7.53%, Cc1cc(C)cc(OCC(=O)NNC(=S)NC(=O)C2CC2)c1 -11.4%, CCOCCCN(CCC#N)S(=O)(=O)c1ccc(S(=O)(=O)N2CCCC2)cc1 2.3%, O=C(Cn1c(=O)n(Cc2nc(-c3ccccc3)no2)c(=O)c2cc3c(cc21)OCO3)Nc1cccc(C(F)(F)F)c1 -15.9%
